Results reported in publication PMC7966362.

Protein sequences, listed by entry. Tags and fused reporters are not part of them.
UniProt Q80SW1: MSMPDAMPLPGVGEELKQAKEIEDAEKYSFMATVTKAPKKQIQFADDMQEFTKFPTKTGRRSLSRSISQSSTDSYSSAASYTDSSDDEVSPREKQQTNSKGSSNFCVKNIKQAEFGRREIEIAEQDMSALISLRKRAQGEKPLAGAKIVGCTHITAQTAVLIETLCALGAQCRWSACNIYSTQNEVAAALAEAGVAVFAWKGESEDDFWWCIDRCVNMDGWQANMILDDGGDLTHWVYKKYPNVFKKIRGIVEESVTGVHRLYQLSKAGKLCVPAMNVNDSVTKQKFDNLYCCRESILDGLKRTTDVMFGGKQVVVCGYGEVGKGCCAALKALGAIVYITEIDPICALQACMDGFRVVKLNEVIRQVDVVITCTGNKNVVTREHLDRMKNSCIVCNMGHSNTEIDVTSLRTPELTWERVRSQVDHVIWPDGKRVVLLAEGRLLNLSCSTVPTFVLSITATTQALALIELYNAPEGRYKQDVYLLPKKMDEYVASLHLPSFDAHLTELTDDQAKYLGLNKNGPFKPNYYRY

Tests used:
[1] = molecular target: T1, HA-tagged AE2 wild type (full length, mouse) (mouse) (UniProt P13808); assay: co-IP; HEK 293T cells transfected with tagged constructs; lysis buffer 10 mM HEPES pH 7.4, 100 mM NaCl, 2 mM EDTA, 0.1% Triton X-100, 10 mM sodium fluoride; antibodies and Protein G overnight at 4 °C; immunoblot
T1 sequence: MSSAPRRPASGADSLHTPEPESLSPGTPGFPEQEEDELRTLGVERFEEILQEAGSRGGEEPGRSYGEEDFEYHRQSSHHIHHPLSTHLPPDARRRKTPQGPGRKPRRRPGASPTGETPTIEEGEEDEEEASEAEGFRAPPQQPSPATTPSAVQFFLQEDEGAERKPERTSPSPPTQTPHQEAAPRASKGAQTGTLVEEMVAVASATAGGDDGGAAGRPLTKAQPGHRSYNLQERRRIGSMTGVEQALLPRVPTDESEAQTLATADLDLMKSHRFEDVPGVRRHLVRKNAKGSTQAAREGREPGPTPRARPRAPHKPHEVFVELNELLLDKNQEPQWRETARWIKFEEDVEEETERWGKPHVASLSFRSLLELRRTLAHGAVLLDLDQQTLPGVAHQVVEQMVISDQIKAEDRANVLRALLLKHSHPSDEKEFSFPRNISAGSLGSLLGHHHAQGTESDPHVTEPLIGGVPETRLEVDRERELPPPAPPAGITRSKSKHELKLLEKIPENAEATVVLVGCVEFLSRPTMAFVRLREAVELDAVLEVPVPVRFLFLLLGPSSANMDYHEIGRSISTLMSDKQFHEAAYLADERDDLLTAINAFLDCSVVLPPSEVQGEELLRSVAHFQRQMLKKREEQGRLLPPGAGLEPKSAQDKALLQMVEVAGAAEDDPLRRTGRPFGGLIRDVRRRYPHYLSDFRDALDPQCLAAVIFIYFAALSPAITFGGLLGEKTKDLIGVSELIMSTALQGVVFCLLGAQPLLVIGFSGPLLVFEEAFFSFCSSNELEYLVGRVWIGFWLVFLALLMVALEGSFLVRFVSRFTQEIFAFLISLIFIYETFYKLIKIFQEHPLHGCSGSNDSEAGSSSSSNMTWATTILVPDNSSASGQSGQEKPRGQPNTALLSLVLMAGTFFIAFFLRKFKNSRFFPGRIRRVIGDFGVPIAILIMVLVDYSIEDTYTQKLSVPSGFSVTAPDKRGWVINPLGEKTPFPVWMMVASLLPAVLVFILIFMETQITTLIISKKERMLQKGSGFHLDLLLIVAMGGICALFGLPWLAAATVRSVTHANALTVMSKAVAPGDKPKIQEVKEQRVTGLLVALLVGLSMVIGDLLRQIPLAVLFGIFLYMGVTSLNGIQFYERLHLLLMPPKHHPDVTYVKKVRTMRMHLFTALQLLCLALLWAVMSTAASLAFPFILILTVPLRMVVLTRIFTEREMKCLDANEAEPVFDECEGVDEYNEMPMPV

[2] = molecular target: T2, GST-tagged AE2-aa1-111 (mouse) (UniProt P13808); assay: pull-down; GST fusion proteins of AE2 N-terminal parts on Glutathione Sepharose 4B incubated with lysate of HEK 293T cells expressing FLAG-tagged L-IRBIT, 4 h at 4 °C; immunoblot with anti-FLAG antibody; only the target purified
T2 sequence: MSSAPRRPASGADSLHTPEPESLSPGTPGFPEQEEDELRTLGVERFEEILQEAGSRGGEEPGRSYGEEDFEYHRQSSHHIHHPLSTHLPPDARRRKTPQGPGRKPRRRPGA

[3] = molecular target: T3, GST-tagged AE2-aa1-100 (mouse) (UniProt P13808); assay: as above
T3 sequence: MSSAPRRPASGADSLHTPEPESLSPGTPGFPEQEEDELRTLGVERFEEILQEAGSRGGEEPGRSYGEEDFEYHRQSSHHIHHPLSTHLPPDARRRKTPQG

[4] = molecular target: T4, GST-tagged AE2-aa1-88 (mouse) (UniProt P13808); assay: as above
T4 sequence: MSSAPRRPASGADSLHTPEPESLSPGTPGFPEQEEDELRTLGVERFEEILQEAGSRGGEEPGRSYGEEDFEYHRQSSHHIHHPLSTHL

[5] = molecular target: T5, GST-tagged AE2-aa1-45 (mouse) (UniProt P13808); assay: as above
T5 sequence: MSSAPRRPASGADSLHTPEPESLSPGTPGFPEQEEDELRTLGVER

[6] = molecular target: T6, GST-tagged AE2-aa1-75 (mouse) (UniProt P13808); assay: as above
T6 sequence: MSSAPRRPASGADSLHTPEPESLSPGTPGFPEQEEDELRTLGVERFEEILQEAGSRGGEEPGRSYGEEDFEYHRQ

[7] = molecular target: T7, GST-tagged AE2-aa55-88 (mouse) (UniProt P13808); assay: as above
T7 sequence: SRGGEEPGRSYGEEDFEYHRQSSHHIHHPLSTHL

[8] = molecular target: T8, GST-tagged AE2-aa1-198 (mouse) (UniProt P13808); assay: as above
T8 sequence: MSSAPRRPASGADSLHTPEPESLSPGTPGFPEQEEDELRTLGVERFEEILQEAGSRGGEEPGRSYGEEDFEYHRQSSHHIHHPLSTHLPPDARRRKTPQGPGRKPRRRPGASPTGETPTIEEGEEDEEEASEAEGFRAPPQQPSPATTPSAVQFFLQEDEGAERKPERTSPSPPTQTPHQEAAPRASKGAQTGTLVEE

[9] = molecular target: FLAG-tagged IRBIT wild type (UniProt Q80SW1); assay: co-IP; HEK 293T cells transfected with tagged constructs; lysis buffer 10 mM HEPES pH 7.4, 100 mM NaCl, 2 mM EDTA, 0.1% Triton X-100, 10 mM sodium fluoride; antibodies and Protein G overnight at 4 °C; immunoblot
[10] = molecular target: T2, GST-tagged AE2-aa1-111 (mouse); assay: pull-down; purified MBP or MBP fusion protein from E. coli incubated with GST or GST fusion protein on Glutathione Sepharose 4B, 4 h at 4 °C; immunoblot with anti-MBP antibody; both purified

Substance: FLAG-tagged L-IRBIT (aa 185–610) (domain or fragment)
- binding [1]: binds

Substance: FLAG-tagged L-IRBIT wild type (full length)
- binding [1]: binds
- binding [2]: binds
- binding [3]: binds
- binding [4]: binds
- binding [5]: no binding
- binding [6]: no binding
- binding [7]: binds
- binding [8]: binds

Substance: FLAG-tagged L-IRBIT-aa1-184 (domain or fragment)
- binding [1]: no binding

Substance: FLAG-tagged L-IRBIT-aa1-307 (domain or fragment)
- binding [1]: no binding

Substance: FLAG-tagged L-IRBIT-aa107-610 (domain or fragment)
- binding [1]: binds

Substance: HA-tagged AE2 mutant (aa 78–82), full length (from UniProt P13808)
- binding [9]: binds weakly

Substance: MBP-tagged L-IRBIT-aa185-610 (domain or fragment)
- binding [10]: binds

Results are given in words; binding and its absence hold for the method and conditions named. For some assays here: Binding can be weak; no strength is given. For some assays here: Sequences can lack the tags named with a protein. For some assays here: In cells and extracts the contact can be indirect.
